Test results from the supplement of paper PMC6411743.
± gives the standard deviation of the averaged measurements. Some of the results follow.

Sequences of proteins named here, by UniProt entry; tags and fusion partners are left off. A change or cut given only in a name is not applied to a line headed by its entry.
UniProt Q6P3S6: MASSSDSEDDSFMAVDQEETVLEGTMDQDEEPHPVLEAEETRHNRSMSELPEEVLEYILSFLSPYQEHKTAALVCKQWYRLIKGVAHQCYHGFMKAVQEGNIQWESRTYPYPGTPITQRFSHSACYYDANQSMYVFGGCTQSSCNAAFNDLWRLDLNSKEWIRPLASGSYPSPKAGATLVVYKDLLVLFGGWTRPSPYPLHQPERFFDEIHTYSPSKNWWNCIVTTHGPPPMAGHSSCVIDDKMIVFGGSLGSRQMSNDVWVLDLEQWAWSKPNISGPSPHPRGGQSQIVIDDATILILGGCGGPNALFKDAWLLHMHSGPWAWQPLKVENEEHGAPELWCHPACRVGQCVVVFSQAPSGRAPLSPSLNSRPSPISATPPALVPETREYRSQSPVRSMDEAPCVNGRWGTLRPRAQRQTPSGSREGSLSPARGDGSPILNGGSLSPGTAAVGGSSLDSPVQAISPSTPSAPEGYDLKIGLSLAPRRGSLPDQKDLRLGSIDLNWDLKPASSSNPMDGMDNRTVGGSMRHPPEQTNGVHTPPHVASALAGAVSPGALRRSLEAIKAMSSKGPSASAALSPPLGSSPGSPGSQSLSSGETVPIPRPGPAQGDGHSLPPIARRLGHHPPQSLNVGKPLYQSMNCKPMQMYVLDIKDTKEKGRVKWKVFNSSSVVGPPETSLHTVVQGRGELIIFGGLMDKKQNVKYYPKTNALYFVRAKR
UniProt Q6ZSZ5: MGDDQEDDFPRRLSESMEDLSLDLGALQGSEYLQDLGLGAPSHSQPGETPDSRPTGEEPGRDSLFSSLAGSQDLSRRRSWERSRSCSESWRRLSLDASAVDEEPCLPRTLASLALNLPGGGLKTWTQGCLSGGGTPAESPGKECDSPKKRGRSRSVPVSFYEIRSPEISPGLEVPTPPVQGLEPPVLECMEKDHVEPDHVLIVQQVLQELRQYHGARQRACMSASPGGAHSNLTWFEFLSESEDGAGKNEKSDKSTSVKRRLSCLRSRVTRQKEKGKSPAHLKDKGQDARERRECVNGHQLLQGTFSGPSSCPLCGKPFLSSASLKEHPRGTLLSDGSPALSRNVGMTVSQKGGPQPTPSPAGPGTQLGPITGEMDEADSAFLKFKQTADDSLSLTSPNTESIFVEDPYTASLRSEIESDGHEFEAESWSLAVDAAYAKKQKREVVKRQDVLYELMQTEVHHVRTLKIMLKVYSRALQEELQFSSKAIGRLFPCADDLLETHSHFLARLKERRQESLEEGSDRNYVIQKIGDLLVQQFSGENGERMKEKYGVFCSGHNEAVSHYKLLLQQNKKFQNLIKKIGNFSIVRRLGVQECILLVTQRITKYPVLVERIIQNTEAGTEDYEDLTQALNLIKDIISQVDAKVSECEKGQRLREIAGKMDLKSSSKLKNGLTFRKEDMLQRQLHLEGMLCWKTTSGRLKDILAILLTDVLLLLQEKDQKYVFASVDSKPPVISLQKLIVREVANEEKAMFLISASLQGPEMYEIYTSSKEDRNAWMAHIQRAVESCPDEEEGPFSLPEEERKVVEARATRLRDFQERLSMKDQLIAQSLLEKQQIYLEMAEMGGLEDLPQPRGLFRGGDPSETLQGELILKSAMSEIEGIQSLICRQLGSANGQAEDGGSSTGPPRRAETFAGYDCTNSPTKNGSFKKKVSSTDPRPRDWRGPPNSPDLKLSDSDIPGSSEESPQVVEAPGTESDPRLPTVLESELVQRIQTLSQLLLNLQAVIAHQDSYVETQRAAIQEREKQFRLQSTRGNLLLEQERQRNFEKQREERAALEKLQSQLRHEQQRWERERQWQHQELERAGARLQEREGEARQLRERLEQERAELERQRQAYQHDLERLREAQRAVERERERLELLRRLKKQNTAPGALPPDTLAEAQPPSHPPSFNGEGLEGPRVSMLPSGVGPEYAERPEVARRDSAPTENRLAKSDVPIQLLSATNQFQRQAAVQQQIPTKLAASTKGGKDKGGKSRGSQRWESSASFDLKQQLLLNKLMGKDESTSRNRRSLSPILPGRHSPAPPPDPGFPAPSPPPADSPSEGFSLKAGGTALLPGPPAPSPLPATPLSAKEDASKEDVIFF
UniProt Q7Z4Q2: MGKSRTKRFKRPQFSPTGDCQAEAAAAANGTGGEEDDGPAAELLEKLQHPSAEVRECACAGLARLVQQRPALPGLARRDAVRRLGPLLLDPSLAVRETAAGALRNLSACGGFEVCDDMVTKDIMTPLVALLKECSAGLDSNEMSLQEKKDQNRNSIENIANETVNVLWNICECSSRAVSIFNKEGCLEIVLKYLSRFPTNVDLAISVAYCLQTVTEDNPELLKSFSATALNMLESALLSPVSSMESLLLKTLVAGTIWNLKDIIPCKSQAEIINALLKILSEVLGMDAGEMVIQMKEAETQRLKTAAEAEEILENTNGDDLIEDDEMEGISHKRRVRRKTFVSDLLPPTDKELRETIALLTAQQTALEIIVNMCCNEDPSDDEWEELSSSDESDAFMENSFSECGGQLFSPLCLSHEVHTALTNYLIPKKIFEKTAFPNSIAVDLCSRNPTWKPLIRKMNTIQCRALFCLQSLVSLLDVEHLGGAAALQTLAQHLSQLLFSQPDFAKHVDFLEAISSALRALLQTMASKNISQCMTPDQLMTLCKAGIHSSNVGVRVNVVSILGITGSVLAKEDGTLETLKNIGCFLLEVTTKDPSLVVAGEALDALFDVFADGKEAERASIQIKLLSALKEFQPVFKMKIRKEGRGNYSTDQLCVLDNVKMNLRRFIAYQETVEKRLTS
UniProt Q6MZP7: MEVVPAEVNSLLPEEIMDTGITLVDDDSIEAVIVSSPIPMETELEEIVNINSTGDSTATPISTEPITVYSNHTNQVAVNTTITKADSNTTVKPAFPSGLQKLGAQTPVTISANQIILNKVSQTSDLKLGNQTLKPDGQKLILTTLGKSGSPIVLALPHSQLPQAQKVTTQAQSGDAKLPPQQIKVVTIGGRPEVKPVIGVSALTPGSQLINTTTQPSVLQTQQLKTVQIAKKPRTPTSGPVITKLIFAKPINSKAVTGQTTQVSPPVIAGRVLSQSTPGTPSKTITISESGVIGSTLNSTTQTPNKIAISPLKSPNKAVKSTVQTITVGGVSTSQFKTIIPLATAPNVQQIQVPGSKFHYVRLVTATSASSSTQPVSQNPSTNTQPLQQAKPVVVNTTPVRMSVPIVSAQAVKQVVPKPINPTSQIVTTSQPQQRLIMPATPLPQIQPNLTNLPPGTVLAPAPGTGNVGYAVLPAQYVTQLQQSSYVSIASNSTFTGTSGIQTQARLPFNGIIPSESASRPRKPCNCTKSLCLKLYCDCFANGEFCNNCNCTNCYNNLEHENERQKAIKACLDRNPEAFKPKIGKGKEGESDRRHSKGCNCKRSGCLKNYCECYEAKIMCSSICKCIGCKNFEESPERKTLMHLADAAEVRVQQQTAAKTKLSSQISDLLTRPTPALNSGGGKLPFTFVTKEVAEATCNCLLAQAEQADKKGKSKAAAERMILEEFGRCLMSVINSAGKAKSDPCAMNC
UniProt Q6PD74: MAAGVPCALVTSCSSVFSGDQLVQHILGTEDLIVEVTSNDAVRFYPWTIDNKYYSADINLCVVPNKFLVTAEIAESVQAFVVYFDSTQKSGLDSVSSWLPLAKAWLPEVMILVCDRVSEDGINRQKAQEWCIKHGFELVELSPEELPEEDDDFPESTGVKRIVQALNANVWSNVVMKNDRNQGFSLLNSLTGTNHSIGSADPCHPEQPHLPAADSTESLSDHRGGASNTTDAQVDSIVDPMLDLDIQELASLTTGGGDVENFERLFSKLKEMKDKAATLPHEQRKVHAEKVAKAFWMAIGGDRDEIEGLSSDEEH
UniProt Q6RFH5: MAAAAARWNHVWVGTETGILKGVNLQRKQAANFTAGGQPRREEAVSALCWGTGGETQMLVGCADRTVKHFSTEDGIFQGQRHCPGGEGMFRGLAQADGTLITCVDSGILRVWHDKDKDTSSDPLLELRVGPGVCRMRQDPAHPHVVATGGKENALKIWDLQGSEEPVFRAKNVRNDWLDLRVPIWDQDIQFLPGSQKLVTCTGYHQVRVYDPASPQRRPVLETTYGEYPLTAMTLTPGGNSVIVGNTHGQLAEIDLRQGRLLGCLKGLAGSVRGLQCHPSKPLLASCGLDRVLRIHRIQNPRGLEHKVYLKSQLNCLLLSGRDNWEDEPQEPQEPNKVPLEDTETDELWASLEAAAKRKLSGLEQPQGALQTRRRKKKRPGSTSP
UniProt Q6IN84: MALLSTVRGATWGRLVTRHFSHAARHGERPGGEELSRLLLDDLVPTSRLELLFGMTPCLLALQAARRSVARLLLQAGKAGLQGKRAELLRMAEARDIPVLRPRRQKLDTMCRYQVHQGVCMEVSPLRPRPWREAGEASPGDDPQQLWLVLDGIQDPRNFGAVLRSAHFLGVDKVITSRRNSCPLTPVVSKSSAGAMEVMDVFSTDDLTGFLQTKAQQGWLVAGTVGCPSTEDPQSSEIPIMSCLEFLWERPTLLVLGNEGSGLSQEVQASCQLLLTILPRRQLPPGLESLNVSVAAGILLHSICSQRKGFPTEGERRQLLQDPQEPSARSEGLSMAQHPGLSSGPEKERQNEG
UniProt Q7Z7K6: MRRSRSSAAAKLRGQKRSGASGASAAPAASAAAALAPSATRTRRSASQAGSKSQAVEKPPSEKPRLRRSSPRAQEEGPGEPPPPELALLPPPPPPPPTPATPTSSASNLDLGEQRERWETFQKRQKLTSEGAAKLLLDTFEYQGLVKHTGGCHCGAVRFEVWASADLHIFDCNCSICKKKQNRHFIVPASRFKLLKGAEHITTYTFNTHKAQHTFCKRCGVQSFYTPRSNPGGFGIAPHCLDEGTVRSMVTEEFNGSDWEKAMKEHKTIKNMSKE
UniProt Q6PCE3: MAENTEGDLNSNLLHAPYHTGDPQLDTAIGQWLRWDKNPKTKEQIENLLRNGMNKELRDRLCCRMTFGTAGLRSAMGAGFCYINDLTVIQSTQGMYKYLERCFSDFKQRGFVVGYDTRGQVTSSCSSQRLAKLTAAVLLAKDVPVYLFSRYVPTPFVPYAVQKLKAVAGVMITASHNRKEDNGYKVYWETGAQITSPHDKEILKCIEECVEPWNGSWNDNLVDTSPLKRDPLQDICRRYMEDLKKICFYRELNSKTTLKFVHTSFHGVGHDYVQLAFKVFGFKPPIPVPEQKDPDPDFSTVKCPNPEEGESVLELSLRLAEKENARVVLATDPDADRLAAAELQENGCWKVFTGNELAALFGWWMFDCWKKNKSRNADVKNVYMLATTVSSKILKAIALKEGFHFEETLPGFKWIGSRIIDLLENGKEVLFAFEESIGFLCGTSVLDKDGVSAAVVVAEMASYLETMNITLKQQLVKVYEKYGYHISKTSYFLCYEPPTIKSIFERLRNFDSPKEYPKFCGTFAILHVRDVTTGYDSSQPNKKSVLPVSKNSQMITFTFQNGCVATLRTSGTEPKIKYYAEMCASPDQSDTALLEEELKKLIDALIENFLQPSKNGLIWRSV
UniProt Q6PID6, whole entry: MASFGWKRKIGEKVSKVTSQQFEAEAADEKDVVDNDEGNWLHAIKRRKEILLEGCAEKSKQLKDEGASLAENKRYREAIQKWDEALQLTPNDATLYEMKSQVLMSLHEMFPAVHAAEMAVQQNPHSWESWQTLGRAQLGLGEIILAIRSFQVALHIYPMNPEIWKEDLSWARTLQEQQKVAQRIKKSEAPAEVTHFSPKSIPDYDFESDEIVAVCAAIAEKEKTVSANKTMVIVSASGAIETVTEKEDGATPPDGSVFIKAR
UniProt Q6GMV2: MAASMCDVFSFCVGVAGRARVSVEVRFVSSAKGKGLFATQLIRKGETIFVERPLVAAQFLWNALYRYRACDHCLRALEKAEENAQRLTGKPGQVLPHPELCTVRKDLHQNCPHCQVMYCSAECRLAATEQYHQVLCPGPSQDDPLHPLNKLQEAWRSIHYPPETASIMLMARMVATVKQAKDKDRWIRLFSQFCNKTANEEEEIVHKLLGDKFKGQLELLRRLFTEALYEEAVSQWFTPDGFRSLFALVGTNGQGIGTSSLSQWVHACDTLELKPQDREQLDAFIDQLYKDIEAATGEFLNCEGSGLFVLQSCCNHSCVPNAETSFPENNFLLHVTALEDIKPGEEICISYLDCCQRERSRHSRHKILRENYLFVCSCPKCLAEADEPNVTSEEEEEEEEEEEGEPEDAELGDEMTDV
UniProt Q6IBS0: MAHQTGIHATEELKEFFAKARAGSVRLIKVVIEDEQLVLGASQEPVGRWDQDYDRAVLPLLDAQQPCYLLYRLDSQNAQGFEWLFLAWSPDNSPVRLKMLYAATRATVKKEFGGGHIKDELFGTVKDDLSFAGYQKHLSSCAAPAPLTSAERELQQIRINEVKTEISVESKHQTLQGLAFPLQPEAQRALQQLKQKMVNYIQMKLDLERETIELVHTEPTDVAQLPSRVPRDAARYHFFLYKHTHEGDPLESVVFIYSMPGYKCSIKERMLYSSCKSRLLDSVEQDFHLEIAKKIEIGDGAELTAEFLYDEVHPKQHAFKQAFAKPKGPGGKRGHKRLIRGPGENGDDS

Compound: Nc1nc2c(ncn2[C@@H]2O[C@H](COP(=O)(O)OP(=O)(O)OP(=O)(O)O)[C@@H](O)[C@H]2O)c(=O)[nH]1 [guanosine triphosphate]
Experiment: NP40-soluble protein abundance relative to vehicle (solubility fold change) (ratio); higher = more soluble protein in presence of GTP
Method in brief: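 Crude Jurkat lysate, prepared by Dounce homogenisation, was exposed to eight concentrations from 0.1 to 10 mM for 10 min at room temperature and then 3 min at 37 °C. Solubilisation used 0.8% NP40 with benzonase for 60 min at 4 °C, followed by ultracentrifugation and TMT labelling of the supernatant for LC-MS/MS. After vsn normalisation of intensities, each value is the fold change against the detergent-processed vehicle within each replicate, across three independent experiments.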

| Target | NP40-soluble protein abundance (concentration: 0.1mM) | NP40-soluble protein abundance (concentration: 0.5mM) | NP40-soluble protein abundance (concentration: 1mM) | NP40-soluble protein abundance (concentration: 2mM) | NP40-soluble protein abundance (concentration: 4mM) | NP40-soluble protein abundance (concentration: 6mM) | NP40-soluble protein abundance (concentration: 8mM) | NP40-soluble protein abundance (concentration: 10mM) |
| --- | --- | --- | --- | --- | --- | --- | --- | --- |
| MBLAC2 (UniProt Q68D91) | 1.09 ± 0.12 | 1.03 ± 0.1 | 1 ± 0.11 | 1.02 ± 0.13 | 1.01 ± 0.11 | 0.941 ± 0.13 | 0.952 ± 0.097 | 0.929 ± 0.14 |
| FBXO42 (UniProt Q6P3S6) | 1.23 ± 0.23 | 1.08 ± 0.082 | 1.06 ± 0.082 | 1.12 ± 0.2 | 1.05 ± 0.075 | 1.06 ± 0.11 | 0.992 ± 0.12 | 1.04 ± 0.12 |
| ATAD2 (UniProt Q6PL18) | 1.15 ± 0.052 | 1.2 ± 0.036 | 1.29 ± 0.075 | 1.22 ± 0.076 | 1.21 ± 0.12 | 1.17 ± 0.061 | 1.17 ± 0.14 | 1.21 ± 0.15 |
| UniProt Q6ZSZ5 and related entries | 1.03 ± 0.021 | 1.04 ± 0.044 | 1.05 ± 0.029 | 1.05 ± 0.058 | 1.03 ± 0.072 | 1.08 ± 0.027 | 1.07 ± 0.082 | 1.06 ± 0.055 |
| TAOK1 (UniProt Q7L7X3) | 1.04 ± 0.087 | 1.07 ± 0.13 | 0.975 ± 0.059 | 1.01 ± 0.13 | 1.04 ± 0.098 | 0.949 ± 0.11 | 0.965 ± 0.055 | 0.966 ± 0.073 |
| UniProt Q6PJT7 and related entries | 0.964 ± 0.031 | 0.958 ± 0.047 | 1.03 ± 0.028 | 1.04 ± 0.065 | 1.1 ± 0.068 | 1.12 ± 0.04 | 1.17 ± 0.081 | 1.21 ± 0.091 |
| UniProt Q6PJW8 and related entries | 1.01 ± 0.17 | 0.985 ± 0.17 | 1.04 ± 0.11 | 0.991 ± 0.21 | 0.994 ± 0.16 | 0.994 ± 0.18 | 0.943 ± 0.12 | 0.981 ± 0.15 |
| HEATR3 (UniProt Q7Z4Q2) | 1.056 ± 0.0086 | 1 ± 0.032 | 1 ± 0.023 | 1.03 ± 0.035 | 1.05 ± 0.062 | 1.03 ± 0.046 | 1.04 ± 0.018 | 1.02 ± 0.052 |
| TRIM65 (UniProt Q6PJ69) | 1.08 ± 0.05 | 1.08 ± 0.075 | 1.02 ± 0.05 | 0.988 ± 0.035 | 0.989 ± 0.01 | 0.949 ± 0.036 | 0.9644 ± 0.0084 | 0.93 ± 0.062 |
| C8orf82 (UniProt Q6P1X6) | 0.971 ± 0.019 | 0.928 ± 0.04 | 0.962 ± 0.045 | 0.935 ± 0.042 | 0.938 ± 0.045 | 0.906 ± 0.011 | 0.871 ± 0.021 | 0.911 ± 0.011 |
| LIN54 (UniProt Q6MZP7) | 0.996 ± 0.031 | 0.99 ± 0.074 | 1.02 ± 0.0042 | 1.07 ± 0.086 | 1.11 ± 0.054 | 1.1 ± 0.034 | 1.15 ± 0.054 | 1.16 ± 0.13 |
| UniProt Q6P2H3 and related entries | 0.964 ± 0.015 | 0.96 ± 0.1 | 1.06 ± 0.065 | 1.06 ± 0.1 | 1.03 ± 0.069 | 1.03 ± 0.07 | 1.11 ± 0.016 | 1.13 ± 0.047 |
| UniProt Q6PD74 and related entries | 1.04 ± 0.029 | 1.01 ± 0.088 | 1.04 ± 0.092 | 0.987 ± 0.081 | 0.943 ± 0.059 | 0.951 ± 0.12 | 1 ± 0.057 | 0.979 ± 0.071 |
| DENND1B (UniProt Q6P3S1) | 1.08 ± 0.11 | 1.1 ± 0.12 | 1.09 ± 0.13 | 1.01 ± 0.13 | 1.05 ± 0.17 | 1.05 ± 0.17 | 1.14 ± 0.11 | 1.05 ± 0.088 |
| UniProt Q6RFH5 and related entries | 1.2 ± 0.014 | 1.09 ± 0.025 | 1.155 ± 0.0063 | 1.1847 ± 0.00068 | 1.229 ± 0.0015 | 1.26 ± 0.098 | 1.3 ± 0.017 | 1.37 ± 0.063 |
| MRM1 (UniProt Q6IN84) | 1.15 ± 0.1 | 1.17 ± 0.11 | 1.3 ± 0.2 | 1.396 ± 0.0059 | 1.44 ± 0.052 | 1.59 ± 0.059 | 1.59 ± 0.26 | 1.68 ± 0.12 |
| UniProt Q7Z7K6 and related entries | 1.09 ± 0.035 | 1.08 ± 0.071 | 1.16 ± 0.013 | 1.37 ± 0.071 | 1.69 ± 0.2 | 2.01 ± 0.27 | 2.24 ± 0.32 | 3.21 ± 0.43 |
| PGM2L1 (UniProt Q6PCE3) | 1.09 ± 0.058 | 1.08 ± 0.11 | 0.949 ± 0.025 | 0.978 ± 0.12 | 0.951 ± 0.085 | 0.916 ± 0.094 | 0.862 ± 0.084 | 0.871 ± 0.12 |
| UniProt Q6PIF6 | 1.1 ± 0.031 | 1.04 ± 0.1 | 1.06 ± 0.11 | 1.09 ± 0.14 | 1.16 ± 0.19 | 1.15 ± 0.097 | 1.09 ± 0.17 | 1.03 ± 0.14 |
| ARHGAP30 (UniProt Q7Z6I6) | 0.947 ± 0.042 | 1.03 ± 0.091 | 0.997 ± 0.082 | 0.98 ± 0.088 | 0.958 ± 0.084 | 1 ± 0.082 | 0.979 ± 0.079 | 0.973 ± 0.096 |
| UniProt Q5THK1 and related entries | 1.14 ± 0.15 | 1.08 ± 0.18 | 1.05 ± 0.14 | 1.05 ± 0.052 | 1.04 ± 0.13 | 1.07 ± 0.011 | 1.03 ± 0.13 | 1.01 ± 0.18 |
| TTC33 (UniProt Q6PID6) | 0.96 ± 0.028 | 0.954 ± 0.059 | 1 ± 0.03 | 1 ± 0.028 | 1 ± 0.056 | 0.965 ± 0.025 | 0.989 ± 0.025 | 0.998 ± 0.027 |
| SMYD5 (UniProt Q6GMV2) | 1.12 ± 0.086 | 0.983 ± 0.1 | 0.992 ± 0.023 | 0.96 ± 0.085 | 1.05 ± 0.14 | 0.92 ± 0.055 | 0.959 ± 0.068 | 0.883 ± 0.019 |
| UniProt Q6VMQ6 and related entries | 0.978 ± 0.048 | 0.974 ± 0.045 | 1.01 ± 0.082 | 0.964 ± 0.086 | 0.982 ± 0.086 | 0.974 ± 0.091 | 1 ± 0.032 | 0.996 ± 0.067 |
| FAM160B1 (UniProt Q5W0V3) | 1.03 ± 0.037 | 1.03 ± 0.027 | 0.964 ± 0.029 | 0.959 ± 0.02 | 0.9389 ± 0.0083 | 0.922 ± 0.0022 | 0.91 ± 0.033 | 0.894 ± 0.051 |
| UniProt Q7Z739 and related entries | 1.01 ± 0.064 | 1.02 ± 0.087 | 0.939 ± 0.054 | 0.938 ± 0.05 | 0.911 ± 0.11 | 0.934 ± 0.12 | 0.941 ± 0.057 | 0.946 ± 0.1 |
| TSPYL5 (UniProt Q86VY4) | 0.897 ± 0.044 | 0.872 ± 0.019 | 1.05 ± 0.054 | 1.07 ± 0.13 | 1.12 ± 0.13 | 1.13 ± 0.11 | 1.11 ± 0.11 | 1.29 ± 0.21 |
| TWF2 (UniProt Q6IBS0) | 1.02 ± 0.035 | 1.09 ± 0.049 | 1.02 ± 0.017 | 1.02 ± 0.055 | 1.03 ± 0.08 | 1.01 ± 0.013 | 0.95 ± 0.032 | 0.951 ± 0.012 |

Copied from the entries so far (two entries):

| Target | NP40-soluble protein abundance (concentration: 0.1mM) | NP40-soluble protein abundance (concentration: 0.5mM) | NP40-soluble protein abundance (concentration: 1mM) | NP40-soluble protein abundance (concentration: 2mM) | NP40-soluble protein abundance (concentration: 4mM) | NP40-soluble protein abundance (concentration: 6mM) | NP40-soluble protein abundance (concentration: 8mM) | NP40-soluble protein abundance (concentration: 10mM) |
| --- | --- | --- | --- | --- | --- | --- | --- | --- |
| UniProt Q6PJT7 and related entries | 0.964 ± 0.031 | 0.958 ± 0.047 | 1.03 ± 0.028 | 1.04 ± 0.065 | 1.1 ± 0.068 | 1.12 ± 0.04 | 1.17 ± 0.081 | 1.21 ± 0.091 |
| UniProt Q6PJW8 and related entries | 1.01 ± 0.17 | 0.985 ± 0.17 | 1.04 ± 0.11 | 0.991 ± 0.21 | 0.994 ± 0.16 | 0.994 ± 0.18 | 0.943 ± 0.12 | 0.981 ± 0.15 |
